Results are given in words; binding and its absence hold for the method and conditions named. In cells and extracts the contact can be indirect. Some entries that bind do so weakly or less than the wild type. Sequences can lack the tags named with a protein.
T1: Myc-TRIM72 (full-length, cDNA 1-1431) (Homo sapiens (Human)) (UniProt Q6ZMU5)
T1 sequence: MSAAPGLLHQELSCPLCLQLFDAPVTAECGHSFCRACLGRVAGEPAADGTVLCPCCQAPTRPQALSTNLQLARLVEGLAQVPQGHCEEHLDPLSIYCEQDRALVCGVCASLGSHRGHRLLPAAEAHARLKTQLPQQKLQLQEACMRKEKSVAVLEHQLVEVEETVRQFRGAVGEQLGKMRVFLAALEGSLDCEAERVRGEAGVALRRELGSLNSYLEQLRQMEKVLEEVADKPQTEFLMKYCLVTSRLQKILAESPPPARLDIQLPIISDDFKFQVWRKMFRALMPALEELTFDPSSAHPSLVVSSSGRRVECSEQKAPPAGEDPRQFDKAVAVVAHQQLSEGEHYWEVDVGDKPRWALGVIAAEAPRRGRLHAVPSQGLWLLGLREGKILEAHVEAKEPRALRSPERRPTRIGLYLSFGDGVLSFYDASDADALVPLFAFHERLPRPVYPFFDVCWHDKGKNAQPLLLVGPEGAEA

Chains of the proteins cited; added tags and fusions are not shown. Lines headed by an entry give the natural chain unless they say otherwise; changes in a name come on top.
UniProt P35568: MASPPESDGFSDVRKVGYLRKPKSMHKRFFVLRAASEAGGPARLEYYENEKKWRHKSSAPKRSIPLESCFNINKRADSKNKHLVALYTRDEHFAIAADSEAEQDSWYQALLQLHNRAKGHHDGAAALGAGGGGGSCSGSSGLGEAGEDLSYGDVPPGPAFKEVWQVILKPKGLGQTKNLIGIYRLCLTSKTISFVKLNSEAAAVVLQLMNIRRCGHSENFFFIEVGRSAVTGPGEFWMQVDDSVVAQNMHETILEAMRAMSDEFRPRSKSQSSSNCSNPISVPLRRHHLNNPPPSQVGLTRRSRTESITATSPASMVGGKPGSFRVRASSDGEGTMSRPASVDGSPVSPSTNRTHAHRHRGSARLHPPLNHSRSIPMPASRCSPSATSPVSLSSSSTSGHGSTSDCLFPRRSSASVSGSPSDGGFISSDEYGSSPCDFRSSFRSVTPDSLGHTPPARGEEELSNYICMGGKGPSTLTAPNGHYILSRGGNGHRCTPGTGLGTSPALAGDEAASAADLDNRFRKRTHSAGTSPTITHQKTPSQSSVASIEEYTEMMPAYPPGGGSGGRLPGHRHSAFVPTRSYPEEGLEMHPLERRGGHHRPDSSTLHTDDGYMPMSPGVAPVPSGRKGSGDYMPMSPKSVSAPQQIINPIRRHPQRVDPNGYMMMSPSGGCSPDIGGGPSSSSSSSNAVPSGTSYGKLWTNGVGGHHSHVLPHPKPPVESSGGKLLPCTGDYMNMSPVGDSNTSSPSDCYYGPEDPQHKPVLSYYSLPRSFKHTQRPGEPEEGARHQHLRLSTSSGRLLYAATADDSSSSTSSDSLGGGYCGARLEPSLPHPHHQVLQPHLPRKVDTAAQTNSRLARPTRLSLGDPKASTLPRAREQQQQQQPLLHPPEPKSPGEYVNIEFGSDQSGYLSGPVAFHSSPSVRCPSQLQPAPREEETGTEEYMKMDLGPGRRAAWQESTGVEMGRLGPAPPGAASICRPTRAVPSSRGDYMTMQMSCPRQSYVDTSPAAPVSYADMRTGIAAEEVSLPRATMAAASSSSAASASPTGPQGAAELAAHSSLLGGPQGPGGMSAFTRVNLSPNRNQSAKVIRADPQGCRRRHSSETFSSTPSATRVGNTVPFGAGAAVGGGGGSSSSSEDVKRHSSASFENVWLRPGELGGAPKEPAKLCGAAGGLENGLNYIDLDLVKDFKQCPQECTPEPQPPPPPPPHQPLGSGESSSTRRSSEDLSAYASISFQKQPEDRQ


Key:
[1] = biological target: T1, Myc-TRIM72 (full-length, cDNA 1-1431) (Homo sapiens (Human)); assay: co-immunoprecipitation, Myc-TRIM72 and Flag-IRS-1 mutants in 293 cells with MG132 (FIG. 9C)
[2] = biological target: Flag-IRS-1 (full-length, cDNA 1-3729) (UniProt P35568); assay: co-immunoprecipitation, Flag-IRS-1 and Myc-TRIM72 mutants in 293 cells with MG132 (FIG. 9D)

Molecule	binding [1]	binding [2]
Flag-IRS-1 Mid-region (cDNA 880-2608; Mid (300-870)) (from UniProt P35568 300-870)	binds	
Flag-IRS-1 Rear-region (cDNA 2581-3729; Rear (871-1243)) (from UniProt P35568 861-1242)	binds	
Myc-TRIM72 coiled-coil construct (cDNA 367-1020) (protein, not shown: small tags and cut ends) AEAHARLKTQLPQQKLQLQEACMRKEKSVAVLEHQLVEVEETVRQFRGAVGEQLGKMRVFLAALEGSLDCEAERVRGEAGVALRRELGSLNSYLEQLRQMEKVLEEVADKPQTEFLMKYCLVTSRLQKILAESPPPARLDIQLPIISDDFKFQVWRKMFRALMPALEELTFDPSSAHPSLVVSSSGRRVECSEQKAPPAGEDPRQFDKAVAVVAHQQL		binds

From patent US20110251256A1 (KOREA UNIVERSITY INDUSTRIAL AND ACADEMIC COLLABORATIVE …, published 2011)
